Results published in PubChem BioAssay AID493014 (National Center for Advancing Translational Sciences (NCATS), 2011).
Hit rate of the full screen: of about 340,000 compounds, about 170 (0.05%) were called active. This list was built around the results that the source calls inconclusive (neither active nor inactive); the mix of calls is not that of the screen. The call rests on the fitted dose curve; in most records, active means well fitted inhibition curve with a large enough effect in the signal ratio, with a control signal flat (not every such curve was filed as active); inconclusive means small, poorly fitted or top-dose-only effect, or effect the other way, or a change in a side signal; inactive means flat fitted curve, though single readings scatter; the % refers to the signal ratio. Where the call is inconclusive, the potency comes from a doubtful curve fit.
Potency means the concentration at half of the fitted maximal effect.

Assay: qHTS Assay to Find Inhibitors of Chronic Active B-Cell Receptor Signaling;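 on activity change, negative = inhibition: plate controls were basal doxycycline-induced cells for no effect and cells given 10 µM MG132 for full effect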
Settings: ABC-DLBCL IkBa-CBG/CBR reporter, luminescence ratio (green luciferase fused to IkBa over red control in TMD8 lymphoma cells), 4 h; activity change, negative = inhibition: at 46.1 µM (top of the series)
Summary of the method: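 Doxycycline induced both beetle luciferases in TMD8 lymphoma cells; IKK-driven degradation limits the IkappaBalpha-fused green signal, while red luminescence normalises for cell number and nonspecific effects. Compounds tested up to 46 uM, 4 hrs.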
For `O=C(NCCO)c1nc(C(=O)c2ccccc2)c2ccccc2n1`, the activity change, negative = inhibition was inconclusive: 7.24%. With `CCCS(=O)(=O)NCCc1sc2nc(-c3ccc(F)cc3)nn2c1C` the Potency was inconclusive: 11.2 µM [falling, partial curve, poor fit]. In the case of `CC1CCN(C(=O)Cn2c3ccccc3c3nc4n(c(=O)c32)CCS4)CC1`, the activity change, negative = inhibition is reported as “inactive”. With `Cc1ccnc(Nc2nc(-c3ccc(Cl)cc3)cs2)c1` the Potency was inconclusive: 17.8 µM [falling, partial curve, poor fit]. In the case of `O=C(COc1ccc(Br)cc1)NCCO`, the activity change, negative = inhibition is reported as inconclusive: 2.15%. In the case of `O=C(Nc1ccc(F)cc1)Nc1ccc(S(=O)(=O)N2CCCC2)cc1`, the activity change, negative = inhibition is reported as inconclusive: 0.719%. For `O=C(c1ccc(Cl)c(S(=O)(=O)N2CCOCC2)c1)N1CCc2ccccc2C1`, the activity change, negative = inhibition was “inactive”. With `CCN(CC)C(=O)CSc1nc(N)c(C(=O)Nc2ccc(OC)cc2)s1` the activity change, negative = inhibition was inconclusive: -2.25%. In the case of `O=C(COC(=O)CC12CC3CC(CC(C3)C1)C2)Nc1cccnc1Cl`, the Potency is reported as inconclusive: 15.8 µM [falling, partial curve, poor fit]. With `Cc1csc(=O)n1CC(=O)OCc1cccc2ccccc12` the activity change, negative = inhibition was inconclusive: 23.4%. For `O=C(CCS(=O)(=O)c1ccc(Cl)cc1)NCCC1=CCCCC1`, the activity change, negative = inhibition was inconclusive: 0.557%. For `CCOC(=O)N1CCN(C(=O)C2CCCCC2)CC1`, the Potency was inconclusive: 0.259 µM [falling, partial curve, poor fit]. With `C/C(CCN1CCc2nc(-c3ccccc3)c(-c3ccccc3)cc2C1)=N\OC[C@@H](C)[C@H](OCc1ccccc1)C(C)C` the activity change, negative = inhibition was inconclusive: 2.73%. For `CCCCNC(=O)CNC(=O)c1nn(-c2ccc(OC)c(Cl)c2)c(=O)c2ccccc12`, the activity change, negative = inhibition was inconclusive: -0.332%. For `COc1cc(CN2CCCC(C(=O)Nc3cccc(-n4cccn4)c3)C2)ccc1F` (stereo unspecified), the activity change, negative = inhibition was inconclusive: -20.4%. In the case of `C[C@@H]1CCCCCCCCCCC1=O`, the activity change, negative = inhibition is reported as inconclusive: 2.54%. With `Cc1oc2cc3oc(=O)c(CC(=O)N[C@@H](C)C(=O)NC(Cc4ccc(Cl)cc4)C(=O)O)c(C)c3cc2c1C` (stereo partly specified) the Potency was inconclusive: 35.5 µM [falling, single point]. For `COC(=O)C(c1cc(OC)c(O)c(OC)c1)(N1CCNC(C)C1)C(F)(F)F` (stereo unspecified), the activity change, negative = inhibition was inconclusive: -17.5%. In the case of `CCCc1cc(=O)[nH]c2nnc(SCC)n12`, the activity change, negative = inhibition is reported as “inactive”. With `COc1cc(CNC(=O)c2cccc(COc3ccc(Cl)cc3)c2)cc(OC)c1` the Potency was inconclusive: 29.1 µM [falling, single point]. For `CC(=O)Nc1c([N+](=O)[O-])cc2[nH]c(=O)[nH]c2c1[N+](=O)[O-]`, the activity change, negative = inhibition was inconclusive: 13.5%. In the case of `Cc1ccc(CN2CCN(CC(=O)N=Nc3c(O)[nH]c4ccccc34)CC2)cc1`, the activity change, negative = inhibition is reported as inconclusive: 7.53%. With `CCOc1cccc(-c2c(C(=O)N/N=C/c3ccc(C)s3)nnn2-c2nonc2N)c1` the activity change, negative = inhibition was inconclusive: 21.8%. In the case of `O=[N+]([O-])c1cc(N=Nc2ccc3ccccc3c2)ccc1O`, the activity change, negative = inhibition is reported as inconclusive: 8.69%. With `C/C(CC(=O)Nc1cc(Cl)ccc1Cl)=N\NC(=O)c1ccco1` the Potency was inconclusive: 17.8 µM [falling, single point]. In the case of `CCc1ccc(NC(=O)COC(=O)C2(c3ccc(Cl)cc3)CCCC2)cc1`, the activity change, negative = inhibition is reported as inconclusive: 8.73%. In the case of `COc1ccc(/C(N)=N/OC(=O)Cc2ccc(C)cc2)cc1`, the activity change, negative = inhibition is reported as inconclusive: 7.05%. With `O=C(COC(=O)CNC(=O)c1ccccc1F)NCCNC(=O)COC(=O)CNC(=O)c1ccccc1F` the activity change, negative = inhibition was inconclusive: 13.1%. With `N/C(CC1CC1(Cl)Cl)=N\OC(=O)c1ccccc1` (stereo unspecified) the activity change, negative = inhibition was inconclusive: 13%. For `O=C(CSc1ncnc2c1cnn2CCc1ccccc1)Nc1cccc(C(F)(F)F)c1`, the activity change, negative = inhibition was inconclusive: 11.1%. For `COc1ccc(-c2nnc3ccc(SCC(=O)N4CCCCC4)nn23)cc1OC`, the activity change, negative = inhibition was inconclusive: 13.5%. In the case of `O=C(OCc1ccc(F)cc1)c1cc2ccccc2cc1O`, the activity change, negative = inhibition is reported as inconclusive: 6.38%. With `CC(C)(C)c1cc(C(=O)C[n+]2ccc(C(=O)NCCCO)cc2)cc(C(C)(C)C)c1O` the activity change, negative = inhibition was inconclusive: 12.4%. In the case of `O=C(COc1ccc(Cl)cc1Cl)N(c1ccccn1)C1CCCCC1`, the activity change, negative = inhibition is reported as “inactive”. In the case of `COc1cccc(OC)c1NC(=O)CN1CCN(C)CC1`, the activity change, negative = inhibition is reported as inconclusive: 1.94%. For `Cc1cc(C)n(-c2ccc(NC(=O)C3CCCCN3C(=O)c3cc(C)oc3C)cc2)n1` (stereo unspecified), the activity change, negative = inhibition was inconclusive: 1.77%. For `C#Cc1ccc([C@@H]2C=C(C(=O)NCc3ccccc3)O[C@H](OCC)[C@H]2CCCO)cc1`, the Potency was inconclusive: 20 µM [falling, partial curve]. With `COc1ccc(-c2nnc(NC(=O)c3ccccc3C)o2)cc1` the Potency was inconclusive: 31.6 µM [cytotoxic, single point]. With `CCN(CC)c1nc2c(c(=O)[nH]c(=O)n2C)n1CCOc1ccccc1` the Potency was inconclusive: 7.94 µM [falling, partial curve]. With `CC(C)[C@H](NS(=O)(=O)c1ccc2c(c1)OCCO2)C(=O)OCC(=O)Nc1cc(Cl)ccc1Cl` the activity change, negative = inhibition was inconclusive: -19.6%. In the case of `CCOc1cc(/C=C/C(=O)Nc2ccc(C(=O)NCCN(CC)CC)cc2)ccc1OCC(C)C`, the Potency is reported as inconclusive: 35.5 µM [falling, single point]. With `O=C(NC1CCN(S(=O)(=O)c2cccc(Cl)c2)CC1)C1CCCCC1` the activity change, negative = inhibition was inconclusive: 16.4%. In the case of `CCCCCOc1ccc(NS(C)(=O)=O)cc1`, the activity change, negative = inhibition is reported as inconclusive: 1.51%. In the case of `O=C(NCCOc1ccccc1)c1ccc2c(c1)S(=O)(=O)c1cc(Cl)ccc1C2=O`, the activity change, negative = inhibition is reported as “inactive”. For `Cc1ccccc1Nc1c([N+](=O)[O-])cncc1[N+](=O)[O-]`, the activity change, negative = inhibition was “inactive”. In the case of `CC(C)(C)NC(=O)NC(=O)CN1CCN(S(=O)(=O)c2ccccc2)CC1`, the activity change, negative = inhibition is reported as inconclusive: -9.45%. For `COc1cc(Cl)ccc1OCc1cc(C(=O)N2C[C@@H]3CCC[C@H]2C3)no1`, the activity change, negative = inhibition was “inactive”. In the case of `CC(=O)Nc1c(C)ccc2nsnc12`, the activity change, negative = inhibition is reported as “inactive”. In the case of `O=C(COc1ccc(Cl)cc1)NCc1nnc(SCC(=O)NC2CCCCC2)o1`, the activity change, negative = inhibition is reported as “inactive”. In the case of `O=C(Nn1cnc2ccccc2c1=O)c1ccc(Cl)c([N+](=O)[O-])c1`, the activity change, negative = inhibition is reported as inconclusive: 5.12%. For `COc1ccc(N2CC(NC(=O)C(c3ccccc3)c3ccccc3)CC2=O)cc1OC` (stereo unspecified), the activity change, negative = inhibition was “inactive”.
